{"source": "PubChem BioAssay AID1159578 (Peter MacCallum Cancer Centre, 2015)", "purpose": "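Knock-downs that alter how fast lymphatic endothelial cells migrate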 (primary screen)", "system": "human lymphatic endothelial cells", "reagent": "siRNA pool against human genes, 40 nM", "duration": "48 h after transfection", "read-out": "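High-content imaging of dye-stained cells in a scratch assay measures filled wound area and nuclei per well; duplicate means given as ratio to mock and robust z-score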", "scale": "migration robust z-score: higher = faster migration into the scratch; nuclei per well: higher = more cells in the well", "rule for the call": "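Migration changed when robust z exceeds 2 or falls below -2 and mean nuclei number is at least 3300; otherwise not called changed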", "meaning of the calls": "active = migration changed; inactive = no migration change, or too few cells", "note": "Shown is one part, drawn at random, of about 18,000 deposited reagents. About 1,030 of them (5.7%) count as active. 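Inactive calls also include pools with fewer than 3300 nuclei, whose migration was not assessed.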 Raw values are not corrected between plates. Unmarked entries are inactive. The numbers tell different reagents against one gene apart. Not all columns of the deposit are shown. Reagent sequences are not shown."}
{"gene": "OR8H2 (GeneID 390151)", "pool no.": 1, "migration robust z-score": -0.04, "migration class with cell-count check": "migration z between -2 and 2; enough cells", "nuclei per well, duplicate mean": 5019}
{"gene": "ZNF480 (GeneID 147657)", "pool no.": 1, "migration robust z-score": 0.98, "migration class with cell-count check": "migration z between -2 and 2; enough cells", "nuclei per well, duplicate mean": 6828}
{"gene": "MARF1 (GeneID 9665)", "pool no.": 1, "migration robust z-score": -0.15, "migration class with cell-count check": "migration z between -2 and 2; enough cells", "nuclei per well, duplicate mean": 4966}
{"gene": "PNPT1 (GeneID 87178)", "pool no.": 1, "migration robust z-score": -0.1, "migration class with cell-count check": "migration z between -2 and 2; enough cells", "nuclei per well, duplicate mean": 5646}
{"gene": "DMWD (GeneID 1762)", "pool no.": 1, "migration robust z-score": 0.72, "migration class with cell-count check": "migration z between -2 and 2; enough cells", "nuclei per well, duplicate mean": 5972}
{"gene": "C10orf88 (GeneID 80007)", "pool no.": 1, "migration robust z-score": -0.74, "migration class with cell-count check": "migration z between -2 and 2; enough cells", "nuclei per well, duplicate mean": 6204}
{"gene": "UBL4A (GeneID 8266)", "pool no.": 1, "migration robust z-score": "2.23 (active)", "migration class with cell-count check": "migration z above 2; enough cells", "nuclei per well, duplicate mean": 5711}
{"gene": "SEC23A (GeneID 10484)", "pool no.": 1, "migration robust z-score": -0.25, "migration class with cell-count check": "migration z between -2 and 2; enough cells", "nuclei per well, duplicate mean": 4988}
{"gene": "PALMD (GeneID 54873)", "pool no.": 1, "migration robust z-score": -0.8, "migration class with cell-count check": "migration z between -2 and 2; enough cells", "nuclei per well, duplicate mean": 6566}
{"gene": "USP30 (GeneID 84749)", "pool no.": 1, "migration robust z-score": -0.6, "migration class with cell-count check": "migration z between -2 and 2; enough cells", "nuclei per well, duplicate mean": 4925}
{"gene": "MPEG1 (GeneID 219972)", "pool no.": 1, "migration robust z-score": -0.78, "migration class with cell-count check": "migration z between -2 and 2; enough cells", "nuclei per well, duplicate mean": 5850}
{"gene": "MERTK (GeneID 10461)", "pool no.": 1, "migration robust z-score": -0.21, "migration class with cell-count check": "migration z between -2 and 2; enough cells", "nuclei per well, duplicate mean": 5498}
{"gene": "TMSB15A (GeneID 11013)", "pool no.": 1, "migration robust z-score": 1.19, "migration class with cell-count check": "migration z between -2 and 2; enough cells", "nuclei per well, duplicate mean": 4006}
{"gene": "HS6ST3 (GeneID 266722)", "pool no.": 1, "migration robust z-score": -0.39, "migration class with cell-count check": "migration z between -2 and 2; enough cells", "nuclei per well, duplicate mean": 5867}
{"gene": "POLR2A (GeneID 5430)", "pool no.": 1, "migration robust z-score": -9.69, "migration class with cell-count check": "under 3300 nuclei; migration not judged", "nuclei per well, duplicate mean": 1786}
{"gene": "CSMD2 (GeneID 114784)", "pool no.": 1, "migration robust z-score": -0.54, "migration class with cell-count check": "migration z between -2 and 2; enough cells", "nuclei per well, duplicate mean": 5664}
{"gene": "ADH1A (GeneID 124)", "pool no.": 1, "migration robust z-score": 0.44, "migration class with cell-count check": "migration z between -2 and 2; enough cells", "nuclei per well, duplicate mean": 4961}
{"gene": "RAD1 (GeneID 5810)", "pool no.": 1, "migration robust z-score": 0.96, "migration class with cell-count check": "migration z between -2 and 2; enough cells", "nuclei per well, duplicate mean": 6867}
{"gene": "AKTIP (GeneID 64400)", "pool no.": 1, "migration robust z-score": 0.31, "migration class with cell-count check": "migration z between -2 and 2; enough cells", "nuclei per well, duplicate mean": 5406}
{"gene": "GPBAR1 (GeneID 151306)", "pool no.": 1, "migration robust z-score": -0.24, "migration class with cell-count check": "migration z between -2 and 2; enough cells", "nuclei per well, duplicate mean": 5118}
{"gene": "RASSF10 (GeneID 644943)", "pool no.": 1, "migration robust z-score": -0.28, "migration class with cell-count check": "migration z between -2 and 2; enough cells", "nuclei per well, duplicate mean": 6678}
{"gene": "FBXW10B (GeneID 374286)", "pool no.": 1, "migration robust z-score": 1.09, "migration class with cell-count check": "migration z between -2 and 2; enough cells", "nuclei per well, duplicate mean": 4454}
{"gene": "TNFSF4 (GeneID 7292)", "pool no.": 1, "migration robust z-score": 1.18, "migration class with cell-count check": "migration z between -2 and 2; enough cells", "nuclei per well, duplicate mean": 5832}
{"gene": "SLC1A4 (GeneID 6509)", "pool no.": 1, "migration robust z-score": -0.18, "migration class with cell-count check": "migration z between -2 and 2; enough cells", "nuclei per well, duplicate mean": 6584}
{"gene": "IRF7 (GeneID 3665)", "pool no.": 1, "migration robust z-score": -0.39, "migration class with cell-count check": "migration z between -2 and 2; enough cells", "nuclei per well, duplicate mean": 4346}
{"gene": "CFAP47 (GeneID 286464)", "pool no.": 1, "migration robust z-score": 0.25, "migration class with cell-count check": "migration z between -2 and 2; enough cells", "nuclei per well, duplicate mean": 6174}
{"gene": "CFAP47 (GeneID 286464)", "pool no.": 2, "migration robust z-score": 0.7, "migration class with cell-count check": "migration z between -2 and 2; enough cells", "nuclei per well, duplicate mean": 6600}
